The chains are these.
T1: recombinant glutathione S-transferase (GST)-tagged Rnd3 (UniProt P61588)
T1 sequence: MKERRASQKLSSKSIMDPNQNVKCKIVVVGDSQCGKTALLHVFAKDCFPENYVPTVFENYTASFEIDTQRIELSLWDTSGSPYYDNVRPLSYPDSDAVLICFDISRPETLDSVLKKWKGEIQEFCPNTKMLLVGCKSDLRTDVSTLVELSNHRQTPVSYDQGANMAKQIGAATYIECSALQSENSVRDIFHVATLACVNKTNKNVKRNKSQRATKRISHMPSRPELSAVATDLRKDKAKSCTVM

B1: FLAG–Rnd2 (protein, UniProt P52198 1-227)
chain: MEGQSGRCKIVVVGDAECGKTALLQVFAKDAYPGSYVPTVFENYTASFEIDKRRIELNMWDTSGSSYYDNVRPLAYPDSDAVLICFDISRPETLDSVLKKWQGETQEFCPNAKVVLVGCKLDMRTDLATLRELSKQRLIPVTHEQGTVLAKQVGAVSYVECSSRSSERSVRDVFHVATVASLGRGHRQLRRTDSRRGMQRSAQLSGRPDRGNEGEIHKDRAKSCNLM
B2: FLAG–Rnd1 (protein, UniProt Q92730 1-232)
chain: MKERRAPQPVVARCKLVLVGDVQCGKTAMLQVLAKDCYPETYVPTVFENYTACLETEEQRVELSLWDTSGSPYYDNVRPLCYSDSDAVLLCFDISRPETVDSALKKWRTEILDYCPSTRVLLIGCKTDLRTDLSTLMELSHQKQAPISYEQGCAIAKQLGAEIYLEGSAFTSEKSIHSIFRTASMLCLNKPSPLPQKSPVRSLSKRLLHLPSRSELISSTFKKEKAKSCSIM
B3: FLAG–Rnd3ΔC (amino acids 1–200) (domain or fragment, UniProt P61588 1-200)
chain: MKERRASQKLSSKSIMDPNQNVKCKIVVVGDSQCGKTALLHVFAKDCFPENYVPTVFENYTASFEIDTQRIELSLWDTSGSPYYDNVRPLSYPDSDAVLICFDISRPETLDSVLKKWKGEIQEFCPNTKMLLVGCKSDLRTDVSTLVELSNHRQTPVSYDQGANMAKQIGAATYIECSALQSENSVRDIFHVATLACVNK
B4: FLAG–Rnd3ΔN (amino acids 16–244) (domain or fragment, UniProt P61588 16-244)
chain: MDPNQNVKCKIVVVGDSQCGKTALLHVFAKDCFPENYVPTVFENYTASFEIDTQRIELSLWDTSGSPYYDNVRPLSYPDSDAVLICFDISRPETLDSVLKKWKGEIQEFCPNTKMLLVGCKSDLRTDVSTLVELSNHRQTPVSYDQGANMAKQIGAATYIECSALQSENSVRDIFHVATLACVNKTNKNVKRNKSQRATKRISHMPSRPELSAVATDLRKDKAKSCTVM
B5: FLAG–Rnd3 (protein, UniProt P61588 1-244)
chain: T1 sequence
B6: FLAG–Rnd3-V56Y (protein, UniProt P61588 1-244)
chain: T1 sequence with V56Y
B7: FLAG–Rnd3-V87R (protein, UniProt P61588 1-244)
chain: T1 sequence with V87R

Residue numbers refer to the chain shown, from its start. In names and notes the source's numbering stands. Results are given in words; binding and its absence hold for the method and conditions named. Binding seen in cells or lysates may run through a third protein. A result given as binding can be weak or reduced; the word gives no strength. Sequences can lack the tags named with a protein.

The target of one experiment is T1, recombinant glutathione S-transferase (GST)-tagged Rnd3. The experiment can be described thus: pull-down; GST or GST–Rnd3 on glutathione–Sepharose beads incubated 2 h at 4°C with lysates of transfected COS7 cells (1% Triton X-100, 20 mM Tris-HCl pH 8, 130 mM NaCl); immunoblotting; only the target purified.
For the molecule “HA-tagged cytoplasmic region of plexin-B2 (plexin-B2-cyto) (human) (domain or fragment)”, the binding entry is “binds”.

A further experiment addresses HA-tagged cytoplasmic region of plexin-B2 (plexin-B2-cyto) (human). The experiment can be described thus: co-IP; lysates of co-transfected COS7 cells (20 mM Tris-HCl pH 8, 130 mM NaCl, 1% Triton X-100); anti-FLAG or anti-HA antibody on agarose beads, 2 h at 4°C; immunoblotting.
Take B1: the binding result is “binds”.
The same measure, in the same setting: the value for B2 was “binds weakly”.
As to B3, the binding result is “no binding”.
On the same count and under the same terms, next, B4: “binds”; B5: “binds”; B6: “no binding”.
Same read-out and setting: next, B7: “no binding”.

The values are drawn from article PMC5117210.
